Reference: patent US20100086929A1, “DETECTION OF ANALYTES” (DO-COOP TECHNOLOGIES LTD., priority 2007, published 2010)
At least one read-out could not be matched to a standard name with certainty.

Assay: Solubilization of retinol in Neowater, absorbance and filtration (Example 10)
Format: physicochemical
Details: alkali versus acidic Neowater
Experimental: Retinol (vitamin A) was purchased from Sigma (Fluka, 99% HPLC). Retinol was solubilized in Neowater™ under the following conditions. 1% retinol (0.01 gr in 1 ml) in EtOH and Neowater™ 0.5% retinol (0.005 gr in 1 ml) in EtOH and Neowater™ 0.5% retinol (0.125 gr in 25 ml) in EtOH and Neowater™ 0.25% retinol (0.0625 gr in 25 ml) in EtOH and Neowater™. […] Absorbance spectrum of retinol in EtOH: Retinol solutions were made in absolute EtOH, with different retinol concentrations, in order to create a calibration graph; absorbance spectrum was detected in a spectrophotometer. […] Actual concentration of retinol is also unknown since some oil drops are not dissolved in the water. […] The solutions were filtrated in […] filter.

CC1=C(/C=C/C(C)=C/C=C/C(C)=C/CO)C(C)(C)CCC1 [Retinol]
solubilization in Neowater: solubilized easily in alkali Neowater™ rather than acidic Neowater™
